Data: PubChem BioAssay AID504444 (National Center for Advancing Translational Sciences (NCATS), 2011)
Among all 360,000 compounds or so, about 7,500 (2.1%) were called active. Inconclusive results, whose numbers are uncertain, are shown with a selection of clear calls. Calls come from the whole dose curve; as a rule, active = well fitted inhibition curve with a large enough effect; inconclusive = small, poorly fitted or top-dose-only effect, or effect the other way; inactive = flat fitted curve, though single readings scatter. Where the call is inconclusive, the potency comes from a doubtful curve fit.

Assay: Nrf2 qHTS screen for inhibitors; note: nearly all actives have a fitted effect of over 60% in size
Details: A549 ARE-Fluc reporter, luciferase luminescence, 18-24 h; activity change, negative = inhibition: at 46 µM (top of the series)
Procedure, shortened: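 Reporter: ARE-Fluc in A549. Exposure: 18-24 h, 37 °C, 5% CO2, 5% FBS OPTI-MEM. Readouts: fluorescent cytotoxicity (CellTiter-Fluor), then luminescent Nrf2 signal after BugLite.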
% is set by controls: 0 for no effect and ±100 for the full control effect; potency is the fitted concentration of half-maximal effect.

| Structure (SMILES) | activity change, negative = inhibition | Potency |
| --- | --- | --- |
| COc1ccc(CN(C)C(=O)c2cccc(NS(=O)(=O)c3ccccc3)c2)cc1F | inactive: -19.2% | – |
| COc1ccc(CNCC(O)(c2ccccc2)c2ccc(Cl)cc2)cc1 (centres undefined) | – | inconclusive: 14.6 µM [falling, partial curve, poor fit] |
| C=CCNC(=S)NNc1nc2c(c(=O)[nH]1)C1(CCCCC1)Cc1ccccc1-2 | – | inconclusive: 29.1 µM [falling, single point] |
| C=CCn1c(Cc2cccs2)nnc1SCC(=O)c1ccc2ccccc2c1 | – | inconclusive: 1.03 µM [falling, partial curve, poor fit] |
| COc1ccc(CN2CCC(Oc3ccc(C(=O)NCc4ccccn4)cc3)CC2)c(F)c1 | – | inconclusive: 14.6 µM [falling, partial curve, poor fit] |
| COc1cc2c(cc1OC)C(c1ccccc1)N(C(=O)CCl)CC2 (centres undefined) | – | inconclusive: 23.1 µM [falling, partial curve, poor fit] |
| Cc1ccc(C#CC[N+]2(CC#Cc3ccc(C)cc3)CCCCC2)cc1 | – | inconclusive: 6.51 µM [falling, partial curve, poor fit] |
| COc1ccc(C2Nc3ccccc3C(=O)N2Cc2ccccn2)cc1COc1ccc(NC(C)=O)cc1 (centres undefined) | – | inconclusive: 16.4 µM [falling, partial curve] |
| NC(=O)c1cc(S(=O)(=O)NCC2CCC(C(=O)Nc3cccc(Cl)c3)CC2)cs1 (centres undefined) | – | inconclusive: 14.6 µM [falling, partial curve, poor fit] |
| CCCc1nnc(NC(=O)c2nc(S(=O)(=O)Cc3ccc(C)cc3)ncc2Cl)s1 | – | inactive |
| COc1ccccc1NC(=O)N(Cc1ccco1)Cc1cc2c(C)ccc(C)c2[nH]c1=O | inactive: 2.58% | – |
| CCOC(=O)c1ccccc1N/C=C/C(=O)c1cccs1 | – | inconclusive: 10.3 µM [activator, partial curve, poor fit] |
| CN1C(=O)CSc2ccc(NC(=O)N3CCN(c4ccccc4)CC3)cc21 | – | inconclusive: 13 µM [falling, partial curve] |
| O=C(NCc1ccc(Cl)cc1)N1CCc2ccccc2C1 | – | inconclusive: 20.6 µM [activator, single point] |
| CC1(C)Cc2c(ccc3ccccc23)C(=O)N1 | – | inconclusive: 25.9 µM [falling, partial curve, poor fit] |
| CCC1=NN(C(=O)CCc2ccc3c(c2)OCO3)C(O)(C(F)(F)F)C1 (centres undefined) | – | inconclusive: 3.66 µM [activator, partial curve, poor fit] |
| Cc1nc2ccccn2c1-c1ccnc(SCc2ccc(Cl)cc2)n1 | – | inconclusive: 29.1 µM [falling, single point] |
| Cc1cc(=O)n2c3ccccc3n(CC(O)CN3CCCCC3)c2c1C#N (centres undefined) | – | inconclusive: 29.1 µM [falling, single point] |
| NC(=O)CSc1cn(Cc2ccccc2)c2ccccc12 | – | inconclusive: 16.4 µM [falling, partial curve, poor fit] |
| Cc1cc(NC(=O)CSc2nnc3ccccn23)no1 | – | inconclusive: 9.2 µM [activator, partial curve, poor fit] |

An excerpt from above in order of molecular weight, smallest number first:

| Structure (SMILES) | activity change, negative = inhibition | Potency |
| --- | --- | --- |
| CC1(C)Cc2c(ccc3ccccc23)C(=O)N1 | – | inconclusive: 25.9 µM [falling, partial curve, poor fit] |
| NC(=O)CSc1cn(Cc2ccccc2)c2ccccc12 | – | inconclusive: 16.4 µM [falling, partial curve, poor fit] |
| CCOC(=O)c1ccccc1N/C=C/C(=O)c1cccs1 | – | inconclusive: 10.3 µM [activator, partial curve, poor fit] |
| COc1cc2c(cc1OC)C(c1ccccc1)N(C(=O)CCl)CC2 (centres undefined) | – | inconclusive: 23.1 µM [falling, partial curve, poor fit] |
| Cc1nc2ccccn2c1-c1ccnc(SCc2ccc(Cl)cc2)n1 | – | inconclusive: 29.1 µM [falling, single point] |
| C=CCNC(=S)NNc1nc2c(c(=O)[nH]1)C1(CCCCC1)Cc1ccccc1-2 | – | inconclusive: 29.1 µM [falling, single point] |
| C=CCn1c(Cc2cccs2)nnc1SCC(=O)c1ccc2ccccc2c1 | – | inconclusive: 1.03 µM [falling, partial curve, poor fit] |
| COc1ccc(CN(C)C(=O)c2cccc(NS(=O)(=O)c3ccccc3)c2)cc1F | inactive: -19.2% | – |
| COc1ccccc1NC(=O)N(Cc1ccco1)Cc1cc2c(C)ccc(C)c2[nH]c1=O | inactive: 2.58% | – |
| COc1ccc(CN2CCC(Oc3ccc(C(=O)NCc4ccccn4)cc3)CC2)c(F)c1 | – | inconclusive: 14.6 µM [falling, partial curve, poor fit] |

Additional compounds follow:

| Structure (SMILES) | activity change, negative = inhibition | Potency |
| --- | --- | --- |
| CNC(=S)N(CCc1c(C)[nH]c2ccc(F)cc12)Cc1cccnc1 | – | inconclusive: 29.1 µM [falling, partial curve, poor fit] |
| Cc1ccc(C)c(N2CCN(C(=O)CN3C(=O)CSc4c3c(C)nn4-c3ccccc3)CC2)c1 | inactive: 22.9% | – |
| COc1cc(OC)c2c(-c3ccccc3)cc(=O)oc2c1C(CCN1CCCC(C)C1)c1ccc(N(C)C)cc1 (centres undefined) | inactive: 4.22% | – |
| CCN(CC)CCCCN1c2ccccc2Sc2ccccc21 | – | inconclusive: 2.06 µM [activator, partial curve, poor fit] |
| CSc1nc(O)c(C(c2ccc(F)cc2)c2c(O)nc(SC)[nH]c2=O)c(=O)[nH]1 | inactive: -15.2% | – |
| O=c1cc(N2CCCCC2)c(-c2ccccc2)nn1Cc1ccccc1 | – | inconclusive: 29.1 µM [falling, single point] |
| Cc1ccc(C)c(NC(=O)CCNS(=O)(=O)c2ccc3c(c2)CCCC(=O)N3)c1 | – | inconclusive: 0.411 µM [falling, full curve, poor fit] |
| CN1CCN(c2ccc(NC(=O)c3ccccc3)cc2)CC1 | – | inconclusive: 2.06 µM [activator, partial curve, poor fit] |
| COc1ccc(-c2cc(C(F)(F)F)nc(N3CCOCC3)n2)cc1OC | – | inconclusive: 25.9 µM [falling, partial curve, poor fit] |
| CCN(c1ccccc1)S(=O)(=O)c1ccc(NN)nc1 | – | inconclusive: 32.6 µM [falling, single point] |
| CCOC(=O)c1c(NC(=O)CNC2CCCCC2)sc(C)c1C | – | inconclusive: 23.1 µM [activator, partial curve, poor fit] |
| CCN1C/C(=C/c2ccc(N3CCOCC3)cc2)C(=O)/C(=C/c2ccc(N3CCOCC3)cc2)C1 | – | inconclusive: 29.1 µM [falling, single point] |
| CCN1C(=O)CSC1=NC12CC3CC(CC(C3)C1)C2 | – | inconclusive: 25.9 µM [falling, partial curve, poor fit] |
| COC(=O)c1ccccc1NC(=O)c1ccc(-c2cccc(Cl)c2)o1 | – | inconclusive: 0.58 µM [activator, partial curve] |
| O=C(Cn1cc2c(n1)CCCC2)NCc1cccs1 | – | inconclusive: 14.6 µM [activator, partial curve, poor fit] |
| COc1ccc(Cl)cc1NC(=O)COC(=O)c1ccc(C)o1 | – | inconclusive: 0.146 µM [falling, full curve, poor fit] |
| CC(C)(C)NC(=O)C(c1c[nH]c2ccccc12)N(C(=O)Cn1nnc(-c2ccc(Cl)cc2)n1)c1ccccc1F (centres undefined) | – | inconclusive: 25.9 µM [falling, single point] |
| COC(=O)[C@@]12CCCCN1[C@H](c1ccc(-c3ccc(OC)cc3)cc1)[C@@H]1C(=O)N(C)C(=O)[C@@H]12 | – | inconclusive: 8.2 µM [falling, partial curve, poor fit] |
| Cc1cc2nc3c(=O)n(C)c(=O)n(C)c3nc2cc1N=CN(C)C | inactive: 19.8% | – |
